Some of these results come from one statement about several compounds together.
Tested on: non-infected LU cells
Assay: effects on non-infected LU cells (morphology, flow cytometry, BrdU incorporation)
Conditions: non-infected cells exposed 96 hr; within 24 hr after removal

CC[C@H](CO)Nc1nc(NCc2ccccc2)c2ncn(C(C)C)c2n1 [roscovitine]
cells able to incorporate bromodeoxyuridine (BrdU) after removal of the inhibitor: more than 70%

Reference: patent publication US6486166B1, “Suppression of cyclin kinase 2 activity for prevention and treatment of DNA viral infections” (Board of Regents, The University of Texas, priority 1997, dated 2002)
